# Results taken from the supplement of paper PMC12067093, “Discovery and optimisation of a covalent ligand for TRIM25 and its application to targeted protein ubiquitination” (Chemical Science, 2025).
# The list shows a part of the results.
# Compound: CC1Cc2ccccc2N1C(=O)C1CCCN(C1)C(=O)CCl (mixture of isomers) [TRIM25 ligand 11 (diastereomer mixture)]
# Experiment: probe-labelled cysteine peptide fold change vs DMSO (competition) (log2 fold change); higher = less target engagement (more negative = stronger competition)
# Conditions: THP-1, incubation time: 4 h
# 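Also: competitive chemoproteomic profiling in live THP-1 cells with an iodoacetamide desthiobiotin (IA-DTB) probe, comparing probe-labelled peptide intensities in compound-treated cells against DMSO-treated controls.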
Target,probe-labelled cysteine peptide fold change (10 µM),probe-labelled cysteine peptide fold change (50 µM)
GPD2_P43304_546_EYACTAVDMISR (UniProt P43304),0.0552,0.0509
GMPS_P49915_213_NFLYDIAGCSGTFTVQNR (UniProt P49915),-0.0358,-0.0372
GNPNAT1_Q96EK6_157_ITLECLPQNVGFYK (UniProt Q96EK6),-0.109,0.0617
GOT2_P00505_272_HFIEQGINVCLCQSYAK (UniProt P00505),0.221,0.191
GOLPH3_Q9H4A6_280_QLLDLDPEVECLK (UniProt Q9H4A6),-0.0996,-0.112
GLS_O94925_518_GIHFCHDLVSLCNFHNYDNLR (UniProt O94925),-0.0754,-0.0766
GLG1_Q92896_118_LAEEESCR (UniProt Q92896),0.114,0.00992
GOPC_Q9HD26_327_CGGLHVGDAILAVNGVNLR (UniProt Q9HD26),0.0726,0.301
GLO1_Q04760_139_GFGHIGIAVPDVYSACKR (UniProt Q04760),-0.51,-0.326
GMDS_O60547_237_IYLGQLECFSLGNLDAK (UniProt O60547),-0.00894,-0.049
GNPNAT1_Q96EK6_150_KLNCYK (UniProt Q96EK6),-0.13,0.167
GOSR1_O95249_34_LCTSYSHSSTR (UniProt O95249),0.125,-0.189
GNAI3_P08754_66_IIHEDGYSEDECK (UniProt P08754),0.166,0.0498
GPATCH11_Q8N954_95_NALGCENK (UniProt Q8N954),-0.0699,-0.121
GOT2_P00505_382_KEGSTHNWQHITDQIGMFCFTGLKPEQVER (UniProt P00505),0.00342,0.0459
GNL3_Q9BVP2_113_EFGLCK (UniProt Q9BVP2),-0.0985,-0.144
GOPC_Q9HD26_408_LYLDELEGGGNPGASCK (UniProt Q9HD26),-0.0816,-0.231
GPD2_P43304_285_CVINATGPFTDSVR (UniProt P43304),0.0856,0.134
GOLGA3_Q08378_477_QSCWDLER (UniProt Q08378),0.119,0.318
GNL1_P36915_365_YKDGVVTIGCVGFPNVGK (UniProt P36915),-0.304,-0.317
GNE_Q9Y223_160_LAHYHVCCTR (UniProt Q9Y223),0.0217,0.0965
GNPNAT1_Q96EK6_157_ITLECLPQNVGFYKK (UniProt Q96EK6),-0.27,0.0452

Target,probe-labelled cysteine peptide fold change (10 µM),probe-labelled cysteine peptide fold change (50 µM)
GOLGA4_Q13439_853_DVCTELDAHK (UniProt Q13439),-0.0317,0.042
GNPNAT1_Q96EK6_45_EVDWSQNTATFSPAISPTHPGEGLVLRPLCTADLNR (UniProt Q96EK6),-0.0144,0.0117
GNPTG_Q9UJJ9_157+169_LAHVSEPSTCVYALTFETPLVCHPHALLVYPTLPEALQR (UniProt Q9UJJ9),0.187,0.167
GLG1_Q92896_140_HTWSNNLAVLECLQDVR (UniProt Q92896),-0.199,-0.0191
GLOD4_Q9HC38_221_IAFSCPQK (UniProt Q9HC38),-0.027,0.292
GLG1_Q92896_950_FCHGILTK (UniProt Q92896),0.00679,-0.0594
GNB4_Q9HAV0_294_LLLAGYDDFNCNVWDTLK (UniProt Q9HAV0),0.139,0.0914
GPI_P06744_404_MIPCDFLIPVQTQHPIRK (UniProt P06744),-0.0185,-0.0737
GOSR2_O14653_18_QVHEIQSCMGR (UniProt O14653),-0.0255,-0.192
GLMP_Q8WWB7_300_ESALPCQASPLHPALAYSLPQSPIVR (UniProt Q8WWB7),0.223,0.011
GIT2_Q14161_31+35_GTFLCDECCSVHR (UniProt Q14161),0.0579,-0.0328
GLRX3_O76003_146_KLTHAAPCMLFMK (UniProt O76003),-0.269,-0.209
GMPS_P49915_456_VICAEEPYICK (UniProt P49915),0.0291,0.0222
GNB2_P62879_271_ADQELLMYSHDNIICGITSVAFSR (UniProt P62879),0.198,0.0704
GNB1_P62873_204_LFVSGACDASAK (UniProt P62873),-0.0694,-0.0331
GNAI2_P04899_140_LWADHGVQACFGR (UniProt P04899),0.0138,0.105
GMIP_Q9P107_525_ECEAFMVSGTECEECFLTCHK (UniProt Q9P107),-0.116,0.0352
GLMP_Q8WWB7_216_LLHTADTCQLEVALIGASPR (UniProt Q8WWB7),-0.18,-0.301
GPI_P06744_404_MIPCDFLIPVQTQHPIR (UniProt P06744),0.0448,0.0525
GOLGA2_Q08379_984_ERPGLGSNPCIPFFYR (UniProt Q08379),-0.062,-0.0279
GOLGA2_Q08379_356_CEAPDANQQLQQAMEER (UniProt Q08379),0.0706,0.0628
GOLGB1_Q14789_2279_VCDTLQGENK (UniProt Q14789),-0.0244,-0.109

Target,probe-labelled cysteine peptide fold change (10 µM),probe-labelled cysteine peptide fold change (50 µM)
GMPPA_Q96IJ6_154_TQSLNYGCIVENPQTHEVLHYVEK (UniProt Q96IJ6),0.0875,-0.131
GMPS_P49915_530_SYSYVCGISSK (UniProt P49915),0.226,0.263
GIT2_Q14161_672_HDSYIPCSER (UniProt Q14161),0.249,-0.236
GNL2_Q13823_336_VCNVAPIAGETK (UniProt Q13823),0.0582,0.00821
GNL3_Q9BVP2_280_QEQMCNVGVSMGLTR (UniProt Q9BVP2),-0.066,-0.0721
GPATCH8_Q9UKJ3_795_HKGELPPSSCQR (UniProt Q9UKJ3),-0.186,-0.0452
GMPR2_Q9P2T1_222+224_GHIISDGGCSCPGDVAK (UniProt Q9P2T1),0.0719,-0.118
GNAI1_P63096_139_DSGVQACFNR (UniProt P63096),-0.0266,0.0893
GLE1_Q53GS7_287_GNQLCSLISGIIR (UniProt Q53GS7),-0.111,-0.0059
GPHN_Q9NQX3_284_LSTASCPTPK (UniProt Q9NQX3),-0.0997,-0.273
GNE_Q9Y223_183_ILLAGCPSYDK (UniProt Q9Y223),0.0878,0.0877
GNPNAT1_Q96EK6_113_FIHSCAK (UniProt Q96EK6),0.225,0.133
GOLPH3_Q9H4A6_108_LQLEACGMR (UniProt Q9H4A6),-0.104,-0.0563
GLOD4_Q9HC38_171_SLNYWCNLLGMK (UniProt Q9HC38),-0.0328,-0.119
GNPNAT1_Q96EK6_128_GRVEDVVVSDECR (UniProt Q96EK6),0.0187,0.125
GLS_O94925_266_FSPDLWGVSVCTVDGQR (UniProt O94925),0.109,-0.00933
GNL3_Q9BVP2_131_LYCQELKK (UniProt Q9BVP2),-0.126,-0.0909
GNL3_Q9BVP2_158_CPQVEEAIVQSGQK (UniProt Q9BVP2),0.259,0.0585
GMPR2_Q9P2T1_186_VGIGPGSVCTTR (UniProt Q9P2T1),-0.0269,-0.0815
GNPDA1_P46926_118_HIDIHPENTHILDGNAVDLQAECDAFEEK (UniProt P46926),-0.077,0.12
GLG1_Q92896_671_TETGQELECLQDHLDDLVVECR (UniProt Q92896),0.0613,-0.00969
GNL1_P36915_365_DGVVTIGCVGFPNVGK (UniProt P36915),0.0236,0.00145

Target,probe-labelled cysteine peptide fold change (10 µM),probe-labelled cysteine peptide fold change (50 µM)
GNL3_Q9BVP2_131_KLYCQELK (UniProt Q9BVP2),-0.154,-0.278
GNPNAT1_Q96EK6_128_VEDVVVSDECR (UniProt Q96EK6),0.0198,0.123
GLA_P06280_378_GVACNPACFITQLLPVKR (UniProt P06280),-0.101,-0.018
GLIPR1_P48060_156_VGCAVQFCPK (UniProt P48060),0.0114,-0.107
GPC4_O75487_341_VFQGCGPPK (UniProt O75487),0.047,0.208
GNAI2_P04899_255_LFDSICNNK (UniProt P04899),0.101,0.117
GPHN_Q9NQX3_676_CILTWHHQEPLPWAQSTGNQMSSR (UniProt Q9NQX3),-0.128,-0.00354
GOLGB1_Q14789_681_SLSAVPDIGQCHQDELER (UniProt Q14789),-0.0704,-0.0481
GLRX_P35754_8_AQEFVNCK (UniProt P35754),-0.0899,-0.236
GLO1_Q04760_61_CDFPIMK (UniProt Q04760),-0.0348,0.0151
GOLGA4_Q13439_1729_NVAAYTEQEEADSQGCVQK (UniProt Q13439),0.235,0.216
GPD2_P43304_188_LYDLVAGSNCLK (UniProt P43304),-0.204,0.0592
GPATCH4_Q5T3I0_152_ILTDEMLLQACEGR (UniProt Q5T3I0),0.108,0.0941
GOLGA3_Q08378_769_EDTICLLQNEK (UniProt Q08378),-0.0838,-0.0912
GLG1_Q92896_324_FCENTQAGEGR (UniProt Q92896),0.0937,0.0961
GLG1_Q92896_542_MVEDCEHR (UniProt Q92896),-0.00882,0.0634
GK_P32189_421_DCGIPLSHLQVDGGMTSNK (UniProt P32189),0.189,0.119
GOPC_Q9HD26_76_MTSLSSCFAQLCHK (UniProt Q9HD26),-0.0907,-0.121
GMPS_P49915_137_SVREDGVFNISVDNTCSLFR (UniProt P49915),-0.131,-0.144
GOT2_P00505_272+274_HFIEQGINVCLCQSYAK (UniProt P00505),0.206,0.283
